# In all, about 310,000 compounds went through this assay and about 17,000 (5.5%) were called active. Inconclusive results, whose numbers are uncertain, are shown with a selection of clear calls. The call rests on the fitted dose curve; in most records, active means well fitted inhibition curve with a large enough effect; inconclusive means small, poorly fitted or top-dose-only effect, or effect the other way; inactive means no such curve, though single readings can be large or run the other way. Potencies of inconclusive entries are doubtful fits and often do not repeat.
# By UniProt entry, the sequences of proteins in these tests, tags left out. Where a name states a change or a piece, a line headed by the entry shows the natural chain unless it says otherwise.
# UniProt P51450: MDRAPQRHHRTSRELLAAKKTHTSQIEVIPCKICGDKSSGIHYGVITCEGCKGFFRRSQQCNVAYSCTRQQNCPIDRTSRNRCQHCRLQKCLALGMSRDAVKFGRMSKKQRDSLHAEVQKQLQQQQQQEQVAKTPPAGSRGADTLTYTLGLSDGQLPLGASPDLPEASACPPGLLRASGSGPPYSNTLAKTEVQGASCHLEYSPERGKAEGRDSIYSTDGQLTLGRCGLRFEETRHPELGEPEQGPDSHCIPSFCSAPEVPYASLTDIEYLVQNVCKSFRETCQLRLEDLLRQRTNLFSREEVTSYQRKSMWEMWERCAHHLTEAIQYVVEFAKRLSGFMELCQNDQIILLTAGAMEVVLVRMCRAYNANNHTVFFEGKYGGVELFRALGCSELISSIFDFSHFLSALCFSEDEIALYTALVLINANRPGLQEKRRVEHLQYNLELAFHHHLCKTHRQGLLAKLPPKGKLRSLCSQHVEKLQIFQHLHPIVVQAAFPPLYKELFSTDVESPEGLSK
# Molecular target: Nuclear receptor ROR-gamma (Mus musculus) (UniProt P51450)
# Assay: qHTS for inhibitors of ROR gamma transcriptional activity; further: nearly all actives have a fitted effect of over 60% in size
# Conditions: Drosophila S2 Gal4-RORgamma UAS-luciferase reporter, 20 h; activity change, negative = inhibition: at 53.6 µM (top of the series)
# Procedure, shortened: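 Stably transfected Drosophila Schneider cells are the test system, with ROR gamma fused to Gal4 and luciferase under UAS control; luminescence is read after 20 hr of 700 uM copper sulfate induction at ambient temperature.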
# On the % scale 0 is the no-effect control and ±100 the full control effect; potency means the concentration at half of the fitted maximal effect.
Compound,"activity change, negative = inhibition",Potency
COc1ccc(-c2nc3c(-c4ccc(F)cc4)cnn3cc2C)cc1F,inactive: 5.98%,
CCN(CC)S(=O)(=O)c1cc(C)ccc1SC,,"inconclusive: 35.5 µM [inhibitor, single point]"
O=C1Nc2cc3c(cc2C1=O)sc1ccccc13,,"inconclusive: 35.5 µM [inhibitor, single point]"
COc1ccccc1-c1nc(SCc2ccccn2)n[nH]1,inactive: -33.3%,
CC(C)c1nnc(NC(=O)CC23CC4CC(CC(C4)C2)C3)s1,,"inconclusive: 17.8 µM [inhibitor, single point]"
S=c1[nH]cc(-c2ccc(Cl)cc2)n1-c1ccccc1,inactive: 6.26%,
c1ccc(Nc2ncncc2-c2ccoc2)cc1,inactive: 5%,
C#CCOc1ccc(/C=C2/C(=O)N(c3cccc(C(=O)O)c3)N=C2C)cc1OC,inactive: 27.4%,
COc1ccc(Cn2nc(-c3ccccc3)c(N3CCCCC3)cc2=O)cc1,,"inconclusive: 35.5 µM [inhibitor, single point]"
CCC(C)NS(=O)(=O)c1ccc(F)c(C(=O)Nc2c(F)cc(F)cc2Br)c1 (configuration not stated),inactive: -6.49%,
Cc1ccc(-c2nc(CN3CCCCC3)cc(CN3CCCCC3)c2O)cc1,,"inconclusive: 14.1 µM [inhibitor, single point]"
O=C(NCCNc1ccc([N+](=O)[O-])cc1C(F)(F)F)c1ccccc1,,"inconclusive: 12.6 µM [activator, partial curve]"
Cc1ccc(C(=O)NCCNc2ncc(C(F)(F)F)cc2Cl)cc1[N+](=O)[O-],,"inconclusive: 14.1 µM [activator, partial curve]"
Fc1ccc(Nc2ncnc3ccc(-c4ccoc4)cc23)cc1,,"inconclusive: 17.8 µM [activator, single point]"
COC(=O)c1ccc(C23CC2(C(NP(=O)(c2ccccc2)c2ccccc2)c2ccccc2)C3)cc1 (configuration not stated),,"inconclusive: 11.2 µM [activator, single point]"
CC(C)c1nc(NCC2CCCO2)c(C#N)c2c1COC(C)(C)C2 (configuration not stated),inactive: 23.8%,
COC(=O)c1ccc(C(NC(=O)OCc2ccccc2)/C(C)=C/[C@@H](C)C(=O)NCCc2c[nH]c3ccc(OC)cc23)cc1 (some centres not stated),,"inconclusive: 11.2 µM [activator, partial curve]"
CCOc1ccccc1NC(=S)N1CCN(c2nc(-c3ccc(F)cc3)cs2)CC1,,active: 11.2 µM
S=c1[nH]nc(-c2ccccc2Cl)n1CC1CCCO1 (configuration not stated),inactive: -8.16%,
C=CCN1C(c2cccc(C(F)(F)F)c2)=CS/C1=C(/C#N)c1nnc(N2CCOCC2)n1-c1ccccc1,,"inconclusive: 11.2 µM [activator, partial curve]"
CC(=O)Nc1ccc(/C(C)=N/NC(=O)c2ccccc2Cl)cc1,inactive: 16%,
CC(C)CNC(=S)NNC(=O)c1ccc(OC(F)F)cc1,,"inconclusive: 1.41 µM [inhibitor, full curve]"
O=C(Cn1c(=O)oc2ccccc21)Nc1nc(-c2ccc(Br)cc2)cs1,inactive: -4.22%,
CCc1nnc(NS(=O)(=O)c2ccc(NC(=S)NC(=O)/C=C/c3ccc(OC)cc3)cc2)s1,inactive: 18.8%,

# A different layout for part of the listing above.
Compound | activity change, negative = inhibition | Potency
COc1ccc(-c2nc3c(-c4ccc(F)cc4)cnn3cc2C)cc1F | inactive: 5.98% | 
Fc1ccc(Nc2ncnc3ccc(-c4ccoc4)cc23)cc1 |  | inconclusive: 17.8 µM [activator, single point]
S=c1[nH]nc(-c2ccccc2Cl)n1CC1CCCO1 (configuration not stated) | inactive: -8.16% | 
O=C(Cn1c(=O)oc2ccccc21)Nc1nc(-c2ccc(Br)cc2)cs1 | inactive: -4.22% | 

# The listing continues:

Compound,"activity change, negative = inhibition",Potency
COc1ccc(NC(=S)NCCN2CCC(C)CC2)cc1,inactive: 2.43%,
O=C(Nc1ccc(Cl)c(C(F)(F)F)c1)C1CCCN(S(=O)(=O)c2cnc[nH]2)C1 (configuration not stated),,"inconclusive: 15.8 µM [activator, partial curve]"
CN1CCN(C(=O)CCCN2C(=O)/C(=C/c3ccccc3)SC2=S)CC1,inactive: -14.9%,
CN(C)c1ccc(N=Cc2ccco2)cc1,,"inconclusive: 35.5 µM [inhibitor, single point]"
CC(=O)Nc1cccc(C(=O)N(Cc2ccccc2)Cc2ccccc2)c1,,"inconclusive: 17.8 µM [activator, partial curve]"
CCOc1ccc(Cn2c(=O)sc3ccccc32)cc1OC,,"inconclusive: 6.31 µM [activator, single point]"
Cc1ccc(C(=O)NN=C2CCCCCC2)s1,,"inconclusive: 2.24 µM [inhibitor, partial curve]"
COc1cccc(-c2nnc(-c3ccc(C)o3)o2)c1,,active: 11.2 µM
CC(C)CNc1nc(N)c([N+](=O)[O-])c(NCC2CCCO2)n1 (configuration not stated),,"inconclusive: 5.62 µM [activator, partial curve]"
Cc1noc(C)c1-c1nc(NCc2ccccc2)c2ccccc2n1,,"inconclusive: 35.5 µM [activator, partial curve]"
Cn1c(=O)c2c(nc(NN=C3CCCCC3)n2C)n(C)c1=O,inactive: -5.9%,
Cc1ccsc1/C=N/Nc1nc(=O)[nH]nc1C,,active: 5.62 µM
COc1ccccc1NC(=S)N(CCN1CCCCCC1)Cc1cccs1,,active: 14.1 µM
COc1ccc(C(=O)Nc2nc3ccc4nc(C)sc4c3s2)cc1,,"inconclusive: 3.16 µM [activator, full curve, poor fit]"
COc1ccc(O)c(C(=O)c2cc(C#N)c(=O)n(Cc3ccccc3)c2)c1,,"inconclusive: 11.2 µM [activator, partial curve]"
COc1ccc(S(=O)(=O)Oc2ccc(C(=S)N3CCOCC3)cc2OC)cc1,,"inconclusive: 15.8 µM [activator, partial curve, poor fit]"
COc1cc2c(cc1NC(=O)COC(=O)/C=C/c1ccc([N+](=O)[O-])cc1)oc1ccccc12,inactive: 0%,
O=S(=O)(NCCc1ccccc1)c1cccs1,,"inconclusive: 0.0056 µM [activator, full curve, poor fit]"
O=C(c1ccc(Cl)cc1)N1CCN(c2ccnc3cc(Cl)ccc23)CC1,,"inconclusive: 3.16 µM [inhibitor, single point]"
COc1ccc(S(=O)(=O)NCC2CCCN(Cc3ccccc3Cl)C2)cc1 (configuration not stated),inactive: 5.89%,
COc1ccc2nc(NC(=O)CCN3C(=O)c4ccccc4C3=O)sc2c1,,"inconclusive: 35.5 µM [inhibitor, single point]"
CCNC(=S)NNC(=O)c1cc(-c2cccc(C)c2)nc2ccccc12,,active: 3.55 µM
COC(=O)CN1C(c2ccc(OC)cc2)=Nc2ccc(Cl)cc2C1c1ccccc1 (configuration not stated),,"inconclusive: 14.1 µM [inhibitor, partial curve]"
CCc1ccc(C(=O)NC(=S)Nc2ccc3c(c2)OCCO3)cc1,,active: 7.08 µM

Compound,"activity change, negative = inhibition",Potency
CN(c1ccccc1)S(=O)(=O)c1cccc(NC(=O)CSc2nnc(N)s2)c1,,"inconclusive: 14.1 µM [activator, partial curve]"
CCc1c(C)[nH]c2ccc(C)cc2c1=O,,"inconclusive: 10 µM [activator, partial curve]"
CCCCOc1ccc(Nc2nc(C)cc(C)c2C#N)cc1,,"inconclusive: 3.16 µM [activator, single point]"
O=C(CSCCO)Nc1cccc2ccccc12,,"inconclusive: 17.8 µM [activator, single point]"
O=c1[nH][nH]c(-c2ccccc2)c1C=Nc1ccc(Cl)cc1,,"inconclusive: 15.8 µM [inhibitor, single point]"
Cc1ccc(-c2csc3ncn(Cc4ccc(C(=O)O)cc4)c(=O)c23)cc1C,,"inconclusive: 15.8 µM [activator, single point]"
Cc1nc2ccccc2c(=O)n1NS(C)(=O)=O,inactive: 14.5%,
Nc1c(C(=O)c2ccc(F)cc2)oc2ccccc12,,"inconclusive: 4.47 µM [activator, partial curve]"
CCn1nc(C)cc1C(=O)N1CCCC(C(=O)c2ccc3ccccc3c2)C1 (configuration not stated),,"inconclusive: 35.5 µM [activator, single point]"
c1ccc(Nc2nc3ccccc3[nH]2)nc1,,active: 2 µM
COc1ccc(-c2cccc(C3CC=CC4C3C(=O)N(Cc3ccccc3)C4c3ccc(C(F)(F)F)cc3)c2)cc1 (configuration not stated),,inactive
O=C(Nc1cccc(-c2csc(Nc3ccc(Cl)cc3)n2)c1)c1cc([N+](=O)[O-])cc(C(F)(F)F)c1,,"inconclusive: 2.82 µM [activator, full curve]"
CC(C)(C)C(=O)Nc1ccc(-c2cn3cccnc3n2)cc1,,"inconclusive: 35.5 µM [inhibitor, single point]"
Oc1cccc2c(NC(=S)Nc3ccc(OC(F)F)cc3)cccc12,,"inconclusive: 11.2 µM [inhibitor, single point]"
CCOC(=O)/C(C#N)=N/Nc1ccc(S(=O)(=O)N2CCc3ccccc32)cc1,,"inconclusive: 12.6 µM [activator, single point]"
Cc1[nH]c(=O)[nH]c(=O)c1CSCC(=O)OCC(=O)c1ccc(Br)cc1,inactive: 0.774%,
CC(C)(C)NC(=O)C(c1cccs1)N(CC1CCCO1)C(=O)Cn1nnc(-c2cccs2)n1 (configuration not stated),,"inconclusive: 20 µM [activator, partial curve, poor fit]"
CC(c1ccon1)N(C)Cc1cn(Cc2ccccc2)nc1-c1ccc2c(c1)OCO2 (configuration not stated),inactive: 0.0702%,
CN(C)c1cccc2c1C(=O)c1ccccc1C2=O,inactive: -17.8%,
COc1ccc(Nc2nc3nonc3nc2N2CCCCC2)cc1,,"inconclusive: 12.6 µM [inhibitor, single point]"
COc1ccc(N2CCN(C(=O)c3cn(CC4CCCCC4)nn3)CC2)cc1,,"inconclusive: 12.6 µM [activator, single point]"
COc1ccccc1OCCNC(=O)/C=C/c1ccc([N+](=O)[O-])cc1,,"inconclusive: 11.2 µM [activator, single point]"
CN(C)c1nc(SCc2ccc(Cl)cc2)nc2c1CCCC2,,"inconclusive: 12.6 µM [inhibitor, single point]"
CCNC(=S)N1CCN(c2ccc([N+](=O)[O-])cc2)CC1,,"inconclusive: 17.8 µM [activator, single point]"
